Data as given in PubChem BioAssay AID602196 (INSERM, 2012).

Screen: 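Genes whose knock-down alters cisplatin killing of lung cancer cells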
Cells: human A549 lung cancer cells
Reagents: siRNA pair against human genes
Time to read-out: 48 h transfection before cisplatin; time from cisplatin to read-out not stated
Treatment: cisplatin at a dose killing half of control-siRNA cells; exact dose and duration not given
Read-out: 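Cisplatin cell death as a shift from the 50% death seen with control siRNA; siRNAs toxic or growth-blocking alone scored 0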
Reading the numbers: two-siRNA summed score (-2 to +2): higher = both siRNAs protect from cisplatin killing; -2 means both sensitise; mean protection from cisplatin (shift in death): higher = protection from cisplatin killing
Active means: 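siRNAs harmful alone (LDH or WST-1) get 0; others get +1 for less and -1 for more cisplatin killing; genes are active when the two siRNAs give the same sign, summing to ±2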
Meaning of the calls: active = both siRNAs shift cisplatin killing the same way; inactive = no consistent shift, or siRNA harmful alone
Here is an unselected part of about 23,000 deposited reagents. Of all reagents, 455 (2%) are marked active. 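Active includes both protection and sensitisation; some change values fall well beyond the stated -50 to +50 range.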 Not all columns of the deposit are shown. No sequences are given here. Not given: the amount of reagent.

NOVA1 [SID131522873] → two-siRNA summed score (-2 to +2): 1; mean protection from cisplatin (shift in death) (%): 28.6; Outcome: inactive
OTUB1 [SID131513497] → two-siRNA summed score (-2 to +2): 0; mean protection from cisplatin (shift in death) (%): 6.6; Outcome: inactive
KLHL7 [SID131509875] → two-siRNA summed score (-2 to +2): 0; mean protection from cisplatin (shift in death) (%): 2.6; Outcome: inactive
ADAM8 [SID131522316] → two-siRNA summed score (-2 to +2): 1; mean protection from cisplatin (shift in death) (%): 17.7; Outcome: inactive
OR6S1 [SID131519845] → two-siRNA summed score (-2 to +2): 1; mean protection from cisplatin (shift in death) (%): 7.7; Outcome: inactive
MKKS [SID131509021] → two-siRNA summed score (-2 to +2): 0; mean protection from cisplatin (shift in death) (%): 1.7; Outcome: inactive
B3GNT8 [SID131522126] → two-siRNA summed score (-2 to +2): 1; mean protection from cisplatin (shift in death) (%): 16.4; Outcome: inactive
STUM [SID131521052] → two-siRNA summed score (-2 to +2): 1; mean protection from cisplatin (shift in death) (%): 12; Outcome: inactive
WAPL [SID131509367] → two-siRNA summed score (-2 to +2): 0; mean protection from cisplatin (shift in death) (%): 2.1; Outcome: inactive
LCORL [SID131513598] → two-siRNA summed score (-2 to +2): 0; mean protection from cisplatin (shift in death) (%): 6.8; Outcome: inactive
LOC221140 [SID131510686] → two-siRNA summed score (-2 to +2): 0; mean protection from cisplatin (shift in death) (%): 3.5; Outcome: inactive
KCNN3 [SID131507759] → two-siRNA summed score (-2 to +2): 0; mean protection from cisplatin (shift in death) (%): 0.3; Outcome: inactive
PASD1 [SID131515401] → two-siRNA summed score (-2 to +2): 0; mean protection from cisplatin (shift in death) (%): 9.1; Outcome: inactive
LOC441078 [SID131521037] → two-siRNA summed score (-2 to +2): 1; mean protection from cisplatin (shift in death) (%): 12; Outcome: inactive
RNF20 [SID131507773] → two-siRNA summed score (-2 to +2): 0; mean protection from cisplatin (shift in death) (%): 0.3; Outcome: inactive
LOC400607 [SID131507433] → two-siRNA summed score (-2 to +2): 0; mean protection from cisplatin (shift in death) (%): -0.1; Outcome: inactive
OTOF [SID131503034] → two-siRNA summed score (-2 to +2): 0; mean protection from cisplatin (shift in death) (%): -15.2; Outcome: inactive
CNP [SID131505784] → two-siRNA summed score (-2 to +2): 0; mean protection from cisplatin (shift in death) (%): -2.6; Outcome: inactive
BPNT1 [SID131520916] → two-siRNA summed score (-2 to +2): 1; mean protection from cisplatin (shift in death) (%): 11.5; Outcome: inactive
LOC440401 [SID131518343] → two-siRNA summed score (-2 to +2): 0; mean protection from cisplatin (shift in death) (%): 18.5; Outcome: inactive
FBXO9 [SID131502941] → two-siRNA summed score (-2 to +2): 0; mean protection from cisplatin (shift in death) (%): -17.7; Outcome: inactive
NUDT16 [SID131512579] → two-siRNA summed score (-2 to +2): 0; mean protection from cisplatin (shift in death) (%): 5.6; Outcome: inactive
COL9A1 [SID131501230] → two-siRNA summed score (-2 to +2): -1; mean protection from cisplatin (shift in death) (%): -11.3; Outcome: inactive
MGC75495 [SID131521678] → two-siRNA summed score (-2 to +2): 1; mean protection from cisplatin (shift in death) (%): 14.4; Outcome: inactive
DEPTOR [SID131504026] → two-siRNA summed score (-2 to +2): 0; mean protection from cisplatin (shift in death) (%): -6.8; Outcome: inactive
ARHGEF15 [SID131501417] → two-siRNA summed score (-2 to +2): -1; mean protection from cisplatin (shift in death) (%): -9.9; Outcome: inactive
ZBTB49 [SID131512557] → two-siRNA summed score (-2 to +2): 0; mean protection from cisplatin (shift in death) (%): 5.6; Outcome: inactive
LOC440268 [SID131518368] → two-siRNA summed score (-2 to +2): 0; mean protection from cisplatin (shift in death) (%): 18.7; Outcome: inactive
KRTAP4-1 [SID131511827] → two-siRNA summed score (-2 to +2): 0; mean protection from cisplatin (shift in death) (%): 4.8; Outcome: inactive
RET [SID131505806] → two-siRNA summed score (-2 to +2): 0; mean protection from cisplatin (shift in death) (%): -2.5; Outcome: inactive
LINC00858 [SID131516647] → two-siRNA summed score (-2 to +2): 0; mean protection from cisplatin (shift in death) (%): 11.3; Outcome: inactive

4 entries from above, showing only “mean protection from cisplatin (shift in death) (%)”.
MGC75495 [SID131521678] = 14.4
DEPTOR [SID131504026] = -6.8
ARHGEF15 [SID131501417] = -9.9
ZBTB49 [SID131512557] = 5.6
